Results of single-concentration screens

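Whole-parasite assay of Trypanosoma brucei over 72 hours; the read-out is not stated. Tested at 30 µM. Higher reads as stronger inhibition (inferred: compounds with an IC50 in retests scored well above the rest). Values scatter widely below zero; nearly all retest evidence comes from the higher of the two concentrations used. Size under these conditions: about 64,000 compounds, about 940 of them at 50% or above in at least one test.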

The filed quantity is “Percent Effect” (%).
The record does not define 0% and 100%; most values in the screen are far below 50% and negative numbers occur (in some assays of this library far below -100).
The compounds are a random part of those screened.

For O=C(O)c1cc(N2C[C@H](NC(=O)C3CCOCC3)[C@@H](C3CC3)C2)ccn1 the result was -38.04%. For Fc1ccc(OCc2nnc([C@H]3CCN(Cc4ccccn4)C3)o2)cc1 the result was -26.64%. For CC(=O)N[C@@H]1CN(C(=O)c2ccc[nH]2)C[C@H]1c1ccc(C)o1 the result was -7.403%. For O=C(CCN1CCCCO1)NCc1cn2c(n1)SCC2 the result was -17.64%. With CN1CCN(S(C)(=O)=O)c2ccc(F)cc21 the screen gave 8.236%. O=C(Nc1ccccc1-c1ccccc1)NC1CCC2(C1)OCCO2 (configuration not stated) gave -64.3%. With Cc1cnn(CC2CCCN2Cc2cc(=O)n3ccccc3n2)c1 (configuration not stated) the screen gave -19.2%.

With CCC(O)C1CCN(C(=O)Nc2nc(-c3ccccc3)ns2)CC1 (configuration not stated) the screen gave -306.8%. Cc1cccc(CCNC(=O)CCS(=O)(=O)C2CCCC2)c1 gave -10.47%. For COc1cccc(-n2nc(C(C)=O)c(C(C)=O)c2C)c1 the result was -7.262%. For O=C(c1cc2c(s1)CCC2)N1CCCC1Cn1cccn1 (configuration not stated) the result was -14.02%. With O=C(NC1CCc2ccccc2C1)N1CCN(C(=O)C2CCC2)CC1 (configuration not stated) the screen gave -4.164%. For O=C(O)C1CCCN1c1nc(C2CC2)cc(C(F)(F)F)n1 (configuration not stated) the result was -34.08%. Result for CN(Cc1nccn1C)C1CCCN(CCCc2ccccc2)C1 (configuration not stated) was -28.4%.

CCS(=O)(=O)N1CCC(c2nc(C)c(C)c(N3CCCC3)n2)CC1 gave 18.55%. CC(C)N(C)C(=O)C1=NOC2(CCN(C(=O)c3ccnnc3)C2)C1 (configuration not stated) gave -48.58%. For Cc1ccc(-c2snnc2C(=O)NCCCO)cc1 the result was 5.075%. Result for Cc1nc(C2CN(Cc3scnc3C)CCO2)cc(N(C)C)n1 (configuration not stated) was 20.84%. For CCCc1noc(C2CC(=O)N(CCN(C)C)C2)n1 (configuration not stated) the result was -10.28%. For O=C(CN1CCCS1(=O)=O)Nc1ccc(OC2CCCC2)cc1 the result was 14.78%. Result for CC(NC(=O)C1=NN(C)C(=O)CC1)c1ccc(Cl)cc1 (configuration not stated) was -30.4%.

Cc1cccc(OCCSCCn2nc3ccccn3c2=O)c1 gave 3.796%. CC(C)NS(=O)(=O)c1ccccc1CNCc1cccc(O)c1 read -12.69%. For COc1ccccc1NC(=O)NCCCn1nc2ccccn2c1=O the result was -15.65%. With O=C(Cc1ccccn1)N1CCc2ncnc(N3CCCC3)c2CC1.O=C(O)C(F)(F)F the screen gave -25.37%. With NC(=O)C1(CCCc2ccccn2)CCCN(Cc2ccncc2)C1 (configuration not stated) the screen gave -15.76%. With CCN(CC)c1nc(O)cc(C(C)n2ncc3ccccc3c2=O)n1 (configuration not stated) the screen gave 10.78%. With CN1CCCN(C(=O)c2ccn3ccnc3c2)CC1 the screen gave -35.63%.

CCc1ccc(C2NCCc3cc4c(cc32)OCCO4)cc1 (configuration not stated) read 67.24%. CN(c1ccncn1)C1CC2(CCN(C(=O)c3ccsc3)C2)C1 (configuration not stated) read 8.94%. For CCCN1CCC(N2CCN(c3cc(C)nc(C)c3)CC2)CC1 the result was -7.405%. CNc1cccc(CC2COCCN(C(=O)c3cnn(C)c3)C2)n1 (configuration not stated) read 9.043%. Result for Cc1cccc(OCC(O)CN2CCN(c3nccs3)CC2)c1 (configuration not stated) was 43.97%. O=C(c1ccc(Cl)cc1)N1CCCn2nnc(Cn3cccn3)c2C1 gave -5.337%. With O=C(C1CCOCC1)N1CCC2(CCNCC2)C1 the screen gave -10.66%.

For Cc1nn(C)c(C)c1CCC(=O)N1CCN(CCn2cncn2)CC1 the result was -12.35%. Result for Cc1cc(C(=O)NCC2SCCc3ccccc32)no1 (configuration not stated) was 12.89%. With COCCC(C)NC(=O)N1CCC(n2ccc(C(F)(F)F)n2)CC1 (configuration not stated) the screen gave -34.83%. [H][C@@]12CCN(C3CCOCC3)C[C@]1([H])O[C@H](C(=O)N1CCOCC1)C2 gave -42.69%. Result for CCc1ccc(C2COCCN2C(=O)NCc2cccc(C#N)c2)o1 (configuration not stated) was -5.278%. With COc1ccc(C[C@H]2CN(C3CCOCC3)CC[C@@H]2OCC2CC2)cc1.O=C(O)C(F)(F)F the screen gave -9.55%. Cn1cc(CN2CCc3c(nc(-c4ccccn4)[nH]c3=O)C2)cn1 read 19.69%.

c1cncc(-c2nnc([C@H]3CCN(CC4CCCCC4)C3)o2)c1 gave 1.585%. Result for Cc1cc(NC(=O)CN2CCc3cnc(C)nc3C2)on1 was -0.9439%.

Some entries from above, unchanged:

Result for CC(C)NS(=O)(=O)c1ccccc1CNCc1cccc(O)c1 was -12.69%.
Result for Cc1cc(NC(=O)CN2CCc3cnc(C)nc3C2)on1 was -0.9439%.
Result for COc1ccc(C[C@H]2CN(C3CCOCC3)CC[C@@H]2OCC2CC2)cc1.O=C(O)C(F)(F)F was -9.55%.

The values are deposited in ChEMBL (CHEMBL3988442, “University of Dundee, Small-Polar-MMV Screening Library” (2021)).